Literature values, collected in PMC8453865 (Clinical Pharmacology in Drug Development, 2021).

Details: coadministration with gemfibrozil; cited from earlier work

## CC(C)c1c(C(=O)Nc2ccccc2)c(-c2ccccc2)c(-c2ccc(F)cc2)n1CC[C@@H](O)C[C@@H](O)CC(=O)O [atorvastatin]
  increase in plasma atorvastatin AUC0‐∞: 24%
